Measured values from PubChem BioAssay AID504467 (National Center for Advancing Translational Sciences (NCATS), 2011).
About 7,700 (2.3%) of roughly 330,000 compounds were called active. The shares of active, inactive and inconclusive entries below differ from those in the screen. Calls follow the shape of the dose curve; as a rule, active = well fitted inhibition curve with a large enough effect; inconclusive = small, poorly fitted or top-dose-only effect, or effect the other way; inactive = flat fitted curve, though single readings scatter. Where the call is inconclusive, the potency comes from a doubtful curve fit.

experiment: qHTS screen for small molecules that inhibit ELG1-dependent DNA repair in human embryonic kidney (HEK293T) cells expressing luciferase-tagged ELG1; conditions: HEK293T ELG1-luciferase reporter, luminescence, 16 h, DNA damage induced by 5-fluorouridine; activity change, negative = inhibition: at 46.1 µM (top of the series); also: nearly all actives have a fitted effect of over 55% in size
Method in brief: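 Reporter activity after DNA damage by 5-fluorouridine is monitored. Compound-treated cells incubate 16 hr at 37 °C, then ONE-Glo is added for 30 min before luminescence reading.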
% is scaled to controls: 0 for no effect and ±100 for the full control effect; potency is read from the fitted curve at half-maximal effect.

SMILES | activity change, negative = inhibition | Potency
CSc1nnc(CCNS(=O)(=O)c2ccccc2Br)n1C | inactive: 16.6% | –
CC(C)c1ccc(/C=C/C(=O)NC2=NCCS2)cc1 | – | inconclusive: 0.731 µM [activator, full curve]
c1ccc(CNc2nc(-c3cccs3)nc3ccccc23)nc1 | inactive: -19% | –
CCN(CC(=O)Nc1ccc(NC(C)=O)cc1)C(=O)/C=C/c1ccc2c(c1)OCO2 | – | inconclusive: 25.9 µM [activator, single point]
C[C@@H]1C(c2ccccc2)=NN(c2ccc(Br)cc2)[C@H]1C(=O)N1CCOC1=O | – | inconclusive: 29.1 µM [inhibitor, single point]
COC(=O)[C@@]1(Cc2ccccc2)[C@H]2C(=O)N(Cc3ccccc3)C(=O)[C@H]2[C@H]2CN=C(SCC3CC3)N21 | – | inconclusive: 16.4 µM [inhibitor, partial curve]
O=C1/C(=C\c2ccco2)CCC/C1=C\c1ccco1 | – | inconclusive: 18.4 µM [activator, partial curve]
Nc1cc(=O)[nH]c(SCc2nnnn2-c2ccc(Cl)cc2)n1 | inactive: 6.63% | –
COc1ccc(OC)c(CN2CCCC(C(=O)c3ccccc3SC)C2)c1 (centres undefined) | – | inconclusive: 29.1 µM [inhibitor, single point]
CCC(=O)c1ccc(OCC(=O)Nc2ccccc2N2CCOCC2)cc1 | – | inconclusive: 20.6 µM [inhibitor, single point]
O=C(CNC(=O)c1ccc(Cl)cc1Cl)OCc1cn2cc(Br)ccc2n1 | – | inconclusive: 9.2 µM [activator, partial curve, poor fit]
CCCCN1CCc2c([nH]c3ccc(C)cc23)C1=O | – | inconclusive: 10.3 µM [activator, partial curve]
Cc1nn(C)c(C)c1S(=O)(=O)N1CCCC(C(=O)N2CCN(c3ccc(Cl)cc3)CC2)C1 (centres undefined) | – | inconclusive: 10 µM [inhibitor, partial curve, poor fit]
O=C(COC(=O)c1ccccc1O)Nc1cccc(S(=O)(=O)N2CCCC2)c1 | inactive: -7.07% | –
Cc1nc(C(=O)NCCC(C)C)sc1C1(C)CC(c2ccccc2)=NO1 (centres undefined) | – | active: 13 µM
COCO/C=C(\NC(C)=O)c1ccccc1 | – | inconclusive: 9.2 µM [activator, partial curve]
COc1ccc(NC(=O)/C(C#N)=C/C=C/c2ccco2)cc1 | inactive: -28.9% | –
COc1ccc(N2C(=O)CC(N3CCN(c4ccccc4)CC3)C2=O)cc1 (centres undefined) | inactive: 6.05% | –
O=C(c1ccc(S(=O)(=O)NCC2CCCO2)cc1)N1CCN(c2ccccc2)CC1 (centres undefined) | – | inconclusive: 14.6 µM [inhibitor, partial curve, poor fit]
O=C(CCCn1c(=S)[nH]c2cc3c(cc2c1=O)OCO3)N1CCN(c2ncccn2)CC1 | – | active: 14.6 µM
Cc1ccc(CC(=O)Nc2ccc(Cl)cn2)cc1 | – | inconclusive: 14.6 µM [activator, partial curve]
CN(C)c1c2ccccc2nc2c(F)c(F)c(F)c(F)c12 | – | inconclusive: 29.1 µM [activator, single point]

3 entries drawn at random from those above:
SMILES | activity change, negative = inhibition | Potency
Cc1nc(C(=O)NCCC(C)C)sc1C1(C)CC(c2ccccc2)=NO1 (centres undefined) | – | active: 13 µM
CCC(=O)c1ccc(OCC(=O)Nc2ccccc2N2CCOCC2)cc1 | – | inconclusive: 20.6 µM [inhibitor, single point]
Cc1nn(C)c(C)c1S(=O)(=O)N1CCCC(C(=O)N2CCN(c3ccc(Cl)cc3)CC2)C1 (centres undefined) | – | inconclusive: 10 µM [inhibitor, partial curve, poor fit]

Further compounds follow.

SMILES | activity change, negative = inhibition | Potency
O=C(Nc1cccc(-c2cc3ccccc3oc2=O)c1)c1ccc(Br)o1 | – | inconclusive: 20.6 µM [inhibitor, single point]
Nc1ccc(C(=O)N2CCCC2)cc1 | – | inconclusive: 25.9 µM [activator, partial curve, poor fit]
O=C(Nc1ccc(N2CCCCC2)cc1)c1ccccc1 | – | inconclusive: 6.51 µM [activator, single point]
CN(Cc1cccnc1)Cc1cn(Cc2ccccc2)nc1-c1ccc2c(c1)OCO2 | – | inconclusive: 23.1 µM [inhibitor, partial curve]
CS(=O)(=O)Nc1ccc(-c2cn3cccnc3n2)cc1 | – | inconclusive: 25.9 µM [activator, single point]
COC(=O)c1ccc(SCc2cnc(Cl)s2)cc1 | – | inconclusive: 4.11 µM [activator, partial curve, poor fit]
S=c1[nH]nc(-c2ccncc2)n1/N=C/c1cn(-c2ccccc2)nc1-c1ccccc1 | inactive: -3.7% | –
CCOc1ccc(CCNC(=O)c2nn(C)c3c2CS(=O)(=O)c2ccccc2-3)cc1 | – | inconclusive: 20.6 µM [inhibitor, single point]
CC(C)(C)C(=O)NC(=S)Nc1cc(C(=O)O)ccc1Cl | – | inconclusive: 20.6 µM [activator, partial curve, poor fit]
O=C(O)c1ccc(NC(=O)c2cn(-c3ccccc3)nc2-c2cccc(Cl)c2)cc1 | inactive: -4.18% | –
CCN(CC)S(=O)(=O)c1ccc(N2CCOCC2)c(NC(=O)c2cccc(C#N)c2)c1 | – | inconclusive: 23.1 µM [inhibitor, single point]
Cc1cc(C)c(C#N)c(SCCS(=O)(=O)Cc2ccc(Cl)cc2)n1 | – | inconclusive: 0.0046 µM [activator, full curve, poor fit]
CN(C)c1cccc(C(=O)NNC(=O)/C=C/c2cccs2)c1 | inactive: 16.4% | –
CCn1c(/C=C/Nc2ccccc2)[n+](CC)c2ccc(Cl)cc21 | – | inconclusive: 23.1 µM [inhibitor, single point]
CC1Sc2ccc(S(=O)(=O)N3CCC(C(=O)N(C)Cc4ccco4)CC3)cc2NC1=O (centres undefined) | – | inconclusive: 18.3 µM [inhibitor, partial curve, poor fit]
COc1ccccc1-c1oc2ccccc2c1C#CC1(O)CCCCC1 | inactive: 23.2% | –
O=C(N/N=C/c1cccnc1)c1sc2ccccc2c1Cl | inactive: -0.914% | –
COc1ccc(CNC(=O)CN2C(=O)C(c3ccccc3)Oc3cccnc32)cc1 (centres undefined) | inactive: 6.91% | –
CC(=O)Nc1ccc(S(=O)(=O)NCCC(=O)OCc2nc(N)nc(Nc3ccccc3C)n2)cc1 | – | inconclusive: 14.6 µM [activator, partial curve, poor fit]
Nc1nc(NCc2ccco2)nc(N2CCCCC2)c1[N+](=O)[O-] | inactive: -3.39% | –
CCOc1ccc(CCNC(=O)C2CCCN(c3ncnc4c3nc3n4CCCCC3)C2)cc1 (centres undefined) | – | inconclusive: 29.1 µM [inhibitor, single point]
Cc1ccc([N+](=O)[O-])cc1NC(=O)Nc1cccc(F)c1 | – | active: 16.4 µM
